Values quoted from earlier work as cited in patent publication US20080153785A1, “Pharmaceutical Compositions Containing Biophosphonate for Improving Oral Absorption” (CHONG KUN DANG PHARMACEUTICAL CORP., priority 2005, published 2008).

Settings: small intestines pH 6 to 8; literature report

absorption rate: less than 1%
SMILES: NCCCC(O)(P(=O)(O)O)P(=O)(O)O [alendronate sodium]
